PMC9563422
No constants are given. Whether binding was seen depends on the method and setting. Binding seen in cells or lysates may run through a third protein. Some binding calls cover weakened binding; strength is not graded here. For some assays here: Sequences can lack the tags named with a protein.

Sequences of proteins named here, by UniProt entry; tags and fusion partners are left off.
UniProt Q92993: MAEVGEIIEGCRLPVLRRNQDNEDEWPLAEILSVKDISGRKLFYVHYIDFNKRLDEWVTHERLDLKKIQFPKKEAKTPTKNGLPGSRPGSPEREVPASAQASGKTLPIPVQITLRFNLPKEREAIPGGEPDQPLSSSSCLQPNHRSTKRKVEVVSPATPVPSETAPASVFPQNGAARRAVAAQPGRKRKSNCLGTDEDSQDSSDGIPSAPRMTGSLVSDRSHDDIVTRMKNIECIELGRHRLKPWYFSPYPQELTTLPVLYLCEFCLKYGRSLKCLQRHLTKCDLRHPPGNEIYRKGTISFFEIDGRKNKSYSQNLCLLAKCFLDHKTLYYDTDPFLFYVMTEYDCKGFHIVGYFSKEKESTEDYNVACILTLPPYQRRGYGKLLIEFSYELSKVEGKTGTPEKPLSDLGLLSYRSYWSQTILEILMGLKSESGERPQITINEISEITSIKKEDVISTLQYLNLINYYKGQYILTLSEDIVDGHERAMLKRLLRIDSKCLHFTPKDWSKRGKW

How the values were obtained:
[1] = biological target: T1, PXR (endogenous, A549/TR cells) (human (endogenous in A549/TR)) (UniProt O75469); assay: co-IP; cells treated with PTX and SPA70 together for 24 h, then arrested in specific cell cycle phases with thymidine (Tdr) and nocodazole; PXR antibody precipitates endogenous Tip60; Western blot
T1 sequence: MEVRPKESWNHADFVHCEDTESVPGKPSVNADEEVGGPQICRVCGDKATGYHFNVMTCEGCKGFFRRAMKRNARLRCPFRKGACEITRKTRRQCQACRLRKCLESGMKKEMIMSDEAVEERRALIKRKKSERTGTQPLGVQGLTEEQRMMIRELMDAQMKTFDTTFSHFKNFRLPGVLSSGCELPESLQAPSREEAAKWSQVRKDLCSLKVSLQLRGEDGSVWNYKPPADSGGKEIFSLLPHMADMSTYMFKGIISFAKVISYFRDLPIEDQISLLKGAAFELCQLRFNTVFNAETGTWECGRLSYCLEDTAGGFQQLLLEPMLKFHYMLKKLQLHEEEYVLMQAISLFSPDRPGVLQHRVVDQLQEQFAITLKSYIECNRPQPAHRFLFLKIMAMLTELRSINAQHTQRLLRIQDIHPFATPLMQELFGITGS

[2] = biological target: T2, GST-PXR ligand binding domain (107-434 aa) (UniProt O75469); assay: pull-down; GST-PXR fragments (1 ug) on beads, incubated with in vitro translated Tip60 in buffer with 100 mM NaCl at 4 °C overnight; washes with 150 mM NaCl; Western blot; only the target purified
T2 sequence: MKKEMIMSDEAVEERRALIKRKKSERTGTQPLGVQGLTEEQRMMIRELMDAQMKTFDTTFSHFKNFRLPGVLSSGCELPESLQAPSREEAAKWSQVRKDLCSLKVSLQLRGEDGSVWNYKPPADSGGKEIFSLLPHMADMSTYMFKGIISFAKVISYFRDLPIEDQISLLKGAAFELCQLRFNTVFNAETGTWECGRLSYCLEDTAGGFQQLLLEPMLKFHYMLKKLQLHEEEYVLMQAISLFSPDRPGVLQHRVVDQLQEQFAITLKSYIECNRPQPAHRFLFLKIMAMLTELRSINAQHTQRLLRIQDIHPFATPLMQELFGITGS

[3] = biological target: GST-Tip60 (UniProt Q92993); assay: pull-down; GST, GST-Tip60 (20 uL glutathione agarose) or GST-Tip60 truncated proteins (1 ug) on beads, incubated with 5 uL in vitro translated PXR in buffer with 100 mM NaCl at 4 °C overnight; washes with 150 mM NaCl; Western blot with PXR antibody; only the target purified
[4] = biological target: FLAG-Tip60 (UniProt Q92993); assay: co-IP; H1299 cells co-transfected with FLAG-Tip60 (3 ug) and PXR (3 ug); 1 ug FLAG antibody; RIPA buffer with 100 mM NaCl at 4 °C overnight, protein A/G agarose, washes with 150 mM NaCl; Western blot
[5] = biological target: GST-Tip60 (UniProt Q92993); assay: pull-down; GST-Tip60 or GST incubated with lysates of A549/TR cells treated with 2 nM PTX, 10 uM SPA70 or both; endogenous PXR detected; only the target purified

For “Tip60 (endogenous, A549/TR cells) (from UniProt Q92993 1-513) (enzyme)”, which binding [1] is on record?
Its binding is “binds”.

With “in vitro translated Tip60 (from UniProt Q92993 1-513) (enzyme)” as the molecule, how does the binding [2] read?
Its binding is “binds”.

B1: in vitro translated PXR (receptor, UniProt O75469 1-434)
chain: MEVRPKESWNHADFVHCEDTESVPGKPSVNADEEVGGPQICRVCGDKATGYHFNVMTCEGCKGFFRRAMKRNARLRCPFRKGACEITRKTRRQCQACRLRKCLESGMKKEMIMSDEAVEERRALIKRKKSERTGTQPLGVQGLTEEQRMMIRELMDAQMKTFDTTFSHFKNFRLPGVLSSGCELPESLQAPSREEAAKWSQVRKDLCSLKVSLQLRGEDGSVWNYKPPADSGGKEIFSLLPHMADMSTYMFKGIISFAKVISYFRDLPIEDQISLLKGAAFELCQLRFNTVFNAETGTWECGRLSYCLEDTAGGFQQLLLEPMLKFHYMLKKLQLHEEEYVLMQAISLFSPDRPGVLQHRVVDQLQEQFAITLKSYIECNRPQPAHRFLFLKIMAMLTELRSINAQHTQRLLRIQDIHPFATPLMQELFGITGS
B1 was tested. Which binding [3] did it give?
The binding was “binds”.

B2: PXR (transfected in H1299 cells) (receptor, UniProt O75469 1-434)
chain: MEVRPKESWNHADFVHCEDTESVPGKPSVNADEEVGGPQICRVCGDKATGYHFNVMTCEGCKGFFRRAMKRNARLRCPFRKGACEITRKTRRQCQACRLRKCLESGMKKEMIMSDEAVEERRALIKRKKSERTGTQPLGVQGLTEEQRMMIRELMDAQMKTFDTTFSHFKNFRLPGVLSSGCELPESLQAPSREEAAKWSQVRKDLCSLKVSLQLRGEDGSVWNYKPPADSGGKEIFSLLPHMADMSTYMFKGIISFAKVISYFRDLPIEDQISLLKGAAFELCQLRFNTVFNAETGTWECGRLSYCLEDTAGGFQQLLLEPMLKFHYMLKKLQLHEEEYVLMQAISLFSPDRPGVLQHRVVDQLQEQFAITLKSYIECNRPQPAHRFLFLKIMAMLTELRSINAQHTQRLLRIQDIHPFATPLMQELFGITGS
Which binding [4] does the source give for B2 here?
The binding was “binds”.

B3: PXR (endogenous, A549/TR cells) (receptor, UniProt O75469 1-434)
chain: MEVRPKESWNHADFVHCEDTESVPGKPSVNADEEVGGPQICRVCGDKATGYHFNVMTCEGCKGFFRRAMKRNARLRCPFRKGACEITRKTRRQCQACRLRKCLESGMKKEMIMSDEAVEERRALIKRKKSERTGTQPLGVQGLTEEQRMMIRELMDAQMKTFDTTFSHFKNFRLPGVLSSGCELPESLQAPSREEAAKWSQVRKDLCSLKVSLQLRGEDGSVWNYKPPADSGGKEIFSLLPHMADMSTYMFKGIISFAKVISYFRDLPIEDQISLLKGAAFELCQLRFNTVFNAETGTWECGRLSYCLEDTAGGFQQLLLEPMLKFHYMLKKLQLHEEEYVLMQAISLFSPDRPGVLQHRVVDQLQEQFAITLKSYIECNRPQPAHRFLFLKIMAMLTELRSINAQHTQRLLRIQDIHPFATPLMQELFGITGS
Which binding [5] does the source give for B3 here?
The binding was “binds”.
